# Assay results from PubChem BioAssay AID504648 (National Center for Advancing Translational Sciences (NCATS), 2011).
# Out of some 390,000 compounds screened, about 610 (0.16%) were called active. Inconclusive means that the source gave no clear call. Such entries were picked first, then a sample of the others. Calls follow the shape of the dose curve; as a rule, active = well fitted inhibition curve with a large enough effect; inconclusive = small, poorly fitted or top-dose-only effect, or effect the other way, or another doubt; inactive = no such curve, though single readings can be large or run the other way. Potencies of inconclusive entries are doubtful fits and often do not repeat.
# Assay: Nrf2 qHTS screen for inhibitors: counterscreen for cytotoxicity
# Details: A549 ARE-Fluc cells, CellTiter-Fluor viability, 18-24 h; activity change, negative = cytotoxicity: at 46 µM (top of the series)
# Summary of the method: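 Cytotoxicity counterscreen: CellTiter-Fluor fluorescence was measured in A549 ARE_Fluc cells after 18-24 h of compound exposure in a concentration series. The subsequent BugLite luminescent read reports ARE-luciferase activity.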
# % is scaled to controls: 0 for no effect and ±100 for the full control effect; potency is read from the fitted curve at half-maximal effect.
Structure (SMILES),Potency,"activity change, negative = cytotoxicity"
Oc1ccccc1N=Nc1nc(-c2ccccc2)c(-c2ccccc2)[nH]1,"inconclusive: 29.1 µM [falling, single point]",
CCCCN1C(=O)CC(SC2CC(=O)N(CCCC)C2=O)C1=O (centres undefined),"inconclusive: 10.3 µM [falling, partial curve, poor fit]",
Cc1ccc(C)c(N2CCN(C(=O)c3cc4c(=O)n(Cc5cccs5)ccc4nc3C)CC2)c1,"inconclusive: 18.4 µM [falling, partial curve, poor fit]",
Cc1ccc(C)c(CN2C(=O)c3ccccc3S(=O)c3ccc(C(=O)N(C)Cc4ccccc4)cc32)c1 (centres undefined),,inactive: -26.4%
CC(=O)c1ccc(NC(=O)COC(=O)c2c3c(nc4ccccc24)/C(=C\c2cccs2)CCC3)cc1,,inactive: -5.78%
CCOC(=O)c1ccc(CSC(=N)N)o1,"inconclusive: 18.4 µM [falling, single point]",
Cc1cccc(N2C(=O)c3cccc4c(N(C)CCO)ccc(c34)C2=O)c1,"inconclusive: 3.26 µM [activator, partial curve]",
CNc1nc2cc([N+](=O)[O-])c([N+](=O)[O-])cc2nc1NC,"inconclusive: 29.1 µM [falling, partial curve, poor fit]",
O=c1[nH]c(CN2CCN(c3ccc([N+](=O)[O-])cc3)CC2)nc2ccsc12,"inconclusive: 23.1 µM [falling, partial curve, poor fit]",
COCCn1nnnc1C(c1cc2ccc(C)cc2[nH]c1=O)N(Cc1ccco1)Cc1cccs1 (centres undefined),"inconclusive: 18.4 µM [falling, single point]",
Cc1cccc(N(C(=O)c2snc(C(N)=O)c2N)C(C(=O)NC2CCCC2)c2ccc(C)o2)c1 (centres undefined),,inactive: -4.06%
COc1ccccc1NC(=O)c1sc2nc(C)c(C(=O)Nc3ccc(C)cc3C)c(-c3ccc(Br)cc3)c2c1N,"inconclusive: 11.6 µM [activator, partial curve, poor fit]",
O=C(COC(=O)c1oc2ccccc2c1CSc1ccc(Cl)cc1)NC1CCCC1,"inconclusive: 29.1 µM [activator, single point]",
C=CCn1ccc(=NC=C(C#N)C#N)c2ccccc21,"inconclusive: 32.6 µM [falling, partial curve, poor fit]",
CSc1ccc(NC(=O)N2CC=C(n3c(=O)[nH]c4ccccc43)CC2)cc1,,inactive: -18%
CCOC(=O)c1ccc(Nc2nc3nonc3nc2Nc2cccc(C)c2C)cc1,"inconclusive: 8.2 µM [falling, partial curve]",
CCOc1ccccc1NC(=O)N1CCC(NC(=O)C2CCCCC2)CC1,"inconclusive: 29.1 µM [falling, partial curve, poor fit]",
Cc1ccc(CSC2=Nc3ccccc3C3=NC(CCC(=O)NCc4cccs4)C(=O)N23)cc1 (centres undefined),"inconclusive: 29.1 µM [falling, partial curve, poor fit]",
N#CCCn1cc(/C=C2\NC(=S)N(c3ccccc3)C2=O)c(-c2ccc(F)cc2)n1,"inconclusive: 18.4 µM [falling, single point]",
O=C(NC1CCCCC1)C1CCN(C(=O)c2ccccc2Cl)CC1,"inconclusive: 13 µM [activator, partial curve, poor fit]",

Structure (SMILES),Potency,"activity change, negative = cytotoxicity"
CC[n+]1c(/C=C/N(C)c2ccccc2)oc2ccccc21,"inconclusive: 8.2 µM [falling, partial curve, poor fit]",
O=C(c1ccc(Cl)cc1)N1CCN(c2ccc([N+](=O)[O-])c(NCc3cccnc3)c2)CC1,"inconclusive: 25.9 µM [falling, single point]",
Cc1cc(C)n(Cc2ccc(NC(=O)c3ccc(COc4ccccc4Br)cc3)cc2)n1,"inconclusive: 29.1 µM [falling, single point]",
CCC(Nc1ncnc2ccc(-c3c(C)noc3C)cc12)c1ccccc1 (centres undefined),"inconclusive: 29.1 µM [falling, partial curve, poor fit]",
NC(=O)c1cc[n+](Cc2ccccc2Cl)cc1,,inactive: 0.14%
O=[N+]([O-])c1ccccc1/C=N/N1CCN(c2ccncc2S(=O)(=O)N2CCCCC2)CC1,"inconclusive: 32.6 µM [falling, partial curve, poor fit]",
Cc1cc(N2CCOCC2)nc(NCc2ccccc2)n1,"inconclusive: 23.1 µM [activator, partial curve, poor fit]",
O=C(Nc1nnc(CSCc2ccc(F)cc2)s1)c1cccc([N+](=O)[O-])c1,"inconclusive: 29.1 µM [falling, single point]",
CC(C)(C)c1ccc(C(=O)NC2(C(F)(F)F)NC(=O)N(CCc3ccccc3)C2=O)cc1 (centres undefined),"inconclusive: 18.4 µM [falling, partial curve, poor fit]",
O=S(=O)(Nc1cccc2cccnc12)c1ccc(Br)s1,"inconclusive: 29.1 µM [falling, single point]",
CN(Cc1ccccc1)C1=CC(=[N+]2CCCCC2)CC(C)(C)C1,"inconclusive: 20.6 µM [falling, single point]",
CC(C)(C)C(=O)NC(=S)NNC(=O)c1ccc(-c2ccccc2)cc1,"inconclusive: 6.51 µM [falling, full curve, poor fit]",
N#CC1=C(N)N2C(=C(C#N)C1c1cccc(Br)c1)Nc1ccccc12 (centres undefined),,inactive: 4.59%
Cc1ccc(NC(=O)NCCOCCn2c(=O)oc3ccccc32)cc1C,,inactive: 0.531%
O=C(CCN1C(=O)/C(=C/c2cccs2)SC1=S)Nc1ccc(O)cc1,"inconclusive: 7.31 µM [falling, partial curve, poor fit]",
CCOc1ccccc1NS(=O)(=O)c1ccc2[nH]c3c(c2c1)CCCCC3,"inconclusive: 29.1 µM [falling, single point]",
Cc1cc(C)c(C#N)c(OCC(=O)c2ccc(Br)cc2)n1,,inactive: -2.61%
CC(=O)O[C@@H]1[C@@H](O)CN[C@@H]1Cc1ccccc1,"inconclusive: 0.206 µM [falling, partial curve, poor fit]",
CCN(CC)CCC(c1ccc(N(C)C)cc1)c1c(OC)cc(OC)c2c1OC(=O)CC2c1ccc(OC)cc1 (centres undefined),"inconclusive: 20.6 µM [falling, partial curve, poor fit]",

# Looked up above.
# N#CCCn1cc(/C=C2\NC(=S)N(c3ccccc3)C2=O)c(-c2ccc(F)cc2)n1 | Potency: inconclusive: 18.4 µM [falling, single point]
# Cc1ccc(CSC2=Nc3ccccc3C3=NC(CCC(=O)NCc4cccs4)C(=O)N23)cc1 (centres undefined) | Potency: inconclusive: 29.1 µM [falling, partial curve, poor fit]
